Structures can show the parent of a compound that is named as a salt. The list shows a part of the results. Single values are uncertain here, since repeats match poorly.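 ReNCell VM, a human fetal ventral-midbrain neural progenitor line, was differentiated without mitogens. Blinded raters scored images stained for doublecortin (early neurons) or tyrosine hydroxylase (dopaminergic neurons) against untreated wells (0 = no change). Scores were averaged across repeats and both raters, and compounds averaging 2 or more were selected as hits for retesting.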
Columns and labels:
ReNCell VM [1] = experiment: neuronal differentiation score (DCX+ cell fraction vs untreated, manual image score) (score (-3 to 3)); higher = more neuronal differentiation; conditions: 2 uM, 2 weeks
ReNCell VM [2] = experiment: dopaminergic neuron differentiation score (TH+ cell fraction vs untreated, manual image score) (score (0 to 3)); higher = more TH+ dopaminergic neuron differentiation; conditions: 2 uM, 4 weeks, BDNF 10 ng/ml + GDNF 10 ng/ml

Question: `CCCCC[C@H](CC(=O)O)C(=O)O` was tested. Which neuronal differentiation score (ReNCell VM [1]; library: Spectrum) did it give?
Answer: Its neuronal differentiation score is inactive: 0.

Question: What about the “dopaminergic neuron differentiation score” value (ReNCell VM [2]; library: Spectrum) of the same molecule?
Answer: The value was inactive: 0.

Question: What does the source list for `C[N+](C)(C)CCCCCC[N+](C)(C)C`?
Answer: neuronal differentiation score (ReNCell VM [1]; library: Spectrum): inactive: 0; dopaminergic neuron differentiation score (ReNCell VM [2]; library: Spectrum): inactive: 0

Question: `O=C(NCCCCN1CCN(c2cccc(Cl)c2Cl)CC1)c1ccc2c(c1)Cc1ccccc1-2` was tested. Which neuronal differentiation score (ReNCell VM [1]; library: Tocriscreen) did it give?
Answer: The neuronal differentiation score was inactive: 0.

Question: What about the “dopaminergic neuron differentiation score” value (ReNCell VM [2]; library: Tocriscreen) of the same molecule?
Answer: The value was inactive: 0.

Question: What does the source list for `O=C(Nc1ccc([N+](=O)[O-])cc1Cl)c1cc(Cl)ccc1O`?
Answer: neuronal differentiation score (ReNCell VM [1]; library: Spectrum): inactive: 0; dopaminergic neuron differentiation score (ReNCell VM [2]; library: Spectrum): inactive: 0

Question: With `CC[C@]1(O)C[C@@H]2CN(CCc3c([nH]c4ccccc34)[C@@](C(=O)OC)(c3cc4c(cc3OC)N(C)[C@H]3[C@@](O)(C(=O)OC)[C@H](OC(C)=O)[C@]5(CC)C=CCN6CC[C@]43[C@@H]65)C2)C1` as the molecule, how does the neuronal differentiation score (ReNCell VM [1]; library: Spectrum) read?
Answer: The neuronal differentiation score was inactive: 0.

Question: And the “dopaminergic neuron differentiation score” value (ReNCell VM [2]; library: Spectrum)?
Answer: The value was inactive: 0.

Question: What does the source list for `CN1CCN(c2c(F)cc3c(=O)c(C(=O)O)cn4c3c2SCC4)CC1` [Rufloxacin]?
Answer: neuronal differentiation score (ReNCell VM [1]; library: Prestwick): inactive: 0; dopaminergic neuron differentiation score (ReNCell VM [2]; library: Prestwick): inactive: 0

Question: `CC(C)C[C@@H]1NC(=O)[C@H](CCCN)NC(=O)[C@H](C(C)C)NC(=O)[C@H](Cc2ccc(O)cc2)N[C@@H](CCC(=O)O)C(=O)N[C@@H](CC(N)=O)C(=O)[C@@H](Cc2ccccc2)NC(=O)[C@H](Cc2ccccc2)NC(=O)[C@@H]2CCCN2C(=O)[C@@H](Cc2ccccc2)NC1=O` was tested. Which neuronal differentiation score (ReNCell VM [1]; library: Spectrum) did it give?
Answer: The neuronal differentiation score was inactive: 0.

Question: And the “dopaminergic neuron differentiation score” value (ReNCell VM [2]; library: Spectrum)?
Answer: The value was inactive: 0.

Question: How did the neuronal differentiation score (ReNCell VM [1]; library: Prestwick) turn out when `CO[C@@]1(NC(=O)Cc2cccs2)C(=O)N2C(C(=O)O)=C(COC(N)=O)CS[C@@H]21` [Cefoxitin sodium salt] was run?
Answer: Its neuronal differentiation score is inactive: 0.

Question: And the “dopaminergic neuron differentiation score” value (ReNCell VM [2]; library: Prestwick)?
Answer: Its value is inactive: 0.

Question: With `CC(=O)[C@@]12O[C@](C)(c3ccccc3)O[C@@H]1C[C@H]1[C@@H]3CCC4=CC(=O)CC[C@]4(C)[C@H]3CC[C@@]12C` as the molecule, how does the neuronal differentiation score (ReNCell VM [1]; library: Spectrum) read?
Answer: The neuronal differentiation score was inactive: 0.

Question: What about the “dopaminergic neuron differentiation score” value (ReNCell VM [2]; library: Spectrum) of the same molecule?
Answer: Its value is inactive: 0.

Question: How did the neuronal differentiation score (ReNCell VM [1]; library: Tocriscreen) turn out when `O=C1CC2(CCCC2)CC(=O)N1CCCCNCC1COc2ccccc2O1` (centres undefined) was run?
Answer: The neuronal differentiation score was inactive: 0.

Question: And the “dopaminergic neuron differentiation score” value (ReNCell VM [2]; library: Tocriscreen)?
Answer: The value was inactive: 0.

Question: For `CC(=O)O[C@H]1C[C@@H]2CC[C@@H]3[C@H](CC[C@@]4(C)[C@H]3C[C@H]([N+]3(C)CCCCC3)[C@@H]4OC(C)=O)[C@@]2(C)C[C@@H]1N1CCCCC1`, which neuronal differentiation score (ReNCell VM [1]; library: Spectrum) is on record?
Answer: The neuronal differentiation score was inactive: 0.

Question: And the “dopaminergic neuron differentiation score” value (ReNCell VM [2]; library: Spectrum)?
Answer: The value was inactive: 0.

Question: `CC12CC(=O)C3=C(CCCC3=O)N1CCc1ccccc12` (centres undefined) was tested. Which neuronal differentiation score (ReNCell VM [1]; library: Natural) did it give?
Answer: The neuronal differentiation score was inactive: 0.

Question: And the “dopaminergic neuron differentiation score” value (ReNCell VM [2]; library: Natural)?
Answer: Its value is inactive: 0.

Question: With `CCCCN1CCC(COC(=O)c2cc(Cl)c(N)c3c2OCCO3)CC1` as the molecule, how does the neuronal differentiation score (ReNCell VM [1]; library: LOPAC) read?
Answer: The neuronal differentiation score was inactive: 0.

Question: What about the “dopaminergic neuron differentiation score” value (ReNCell VM [2]; library: LOPAC) of the same molecule?
Answer: Its value is inactive: 0.

Question: Which neuronal differentiation score (ReNCell VM [1]; library: Spectrum) does the source give for `CCN[C@H]1CN(CCCOC)S(=O)(=O)c2sc(S(N)(=O)=O)cc21` here?
Answer: The neuronal differentiation score was inactive: 0.

Question: And the “dopaminergic neuron differentiation score” value (ReNCell VM [2]; library: Spectrum)?
Answer: Its value is inactive: 0.

Question: Which neuronal differentiation score (ReNCell VM [1]; library: Phytochemical) does the source give for `CC(C)C1=CC2=CC[C@@H]3[C@](C)(CCC[C@@]3(C)C(=O)O)[C@H]2CC1` [Abietic Acid] here?
Answer: Its neuronal differentiation score is inactive: 1.

Question: What about the “dopaminergic neuron differentiation score” value (ReNCell VM [2]; library: Phytochemical) of the same molecule?
Answer: Its value is inactive: 0.

Question: How did the neuronal differentiation score (ReNCell VM [1]; library: Prestwick) turn out when `C=CC(N)CCC(=O)O` (centres undefined) [Vigabatrin] was run?
Answer: The neuronal differentiation score was inactive: 0.

Question: What about the “dopaminergic neuron differentiation score” value (ReNCell VM [2]; library: Prestwick) of the same molecule?
Answer: Its value is inactive: 0.

Question: How did the neuronal differentiation score (ReNCell VM [1]; library: LOPAC) turn out when `CN1C[C@H](O)[C@@H](O)[C@H](O)[C@H]1CO` [N-Methyl-1-deoxynojirimycin] was run?
Answer: The neuronal differentiation score was inactive: 0.

Question: And the “dopaminergic neuron differentiation score” value (ReNCell VM [2]; library: LOPAC)?
Answer: Its value is inactive: 0.

Question: For `Cc1ccc(OCC(O)C(C)NC(C)C)c2c1CCC2` (centres undefined) [ICI 118,551 hydrochloride], which neuronal differentiation score (ReNCell VM [1]; library: LOPAC) is on record?
Answer: The neuronal differentiation score was inactive: 0.

Question: What about the “dopaminergic neuron differentiation score” value (ReNCell VM [2]; library: LOPAC) of the same molecule?
Answer: Its value is active: 2.

Question: What does the source list for `C/C(=C\C(=O)OCCCCCCCCC(=O)O)C[C@@H]1OC[C@H](C[C@@H]2O[C@H]2[C@@H](C)[C@H](C)O)[C@@H](O)[C@H]1O`?
Answer: neuronal differentiation score (ReNCell VM [1]; library: Spectrum): inactive: 0; dopaminergic neuron differentiation score (ReNCell VM [2]; library: Spectrum): inactive: 0

Question: With `CCCNC[C@H](O)COc1ccccc1C(=O)CCc1ccccc1` [(S)-(-)-propafenone hydrochloride] as the molecule, how does the neuronal differentiation score (ReNCell VM [1]; library: LOPAC) read?
Answer: Its neuronal differentiation score is inactive: 0.

Question: What about the “dopaminergic neuron differentiation score” value (ReNCell VM [2]; library: LOPAC) of the same molecule?
Answer: Its value is inactive: 0.

Question: What does the source list for `CC(C)(S)[C@@H](N)C(=O)O` [Penicillamine]?
Answer: neuronal differentiation score (ReNCell VM [1]; library: Prestwick): inactive: 0; dopaminergic neuron differentiation score (ReNCell VM [2]; library: Prestwick): inactive: 0

Question: Which neuronal differentiation score (ReNCell VM [1]; library: Tocriscreen) does the source give for `COc1ccc2cc([C@H](C)C(=O)O)ccc2c1` [Naproxen sodium] here?
Answer: Its neuronal differentiation score is inactive: 0.

Question: What about the “dopaminergic neuron differentiation score” value (ReNCell VM [2]; library: Tocriscreen) of the same molecule?
Answer: Its value is inactive: 0.

Question: What does the source list for `CC1(C)CCC[C@](C)([C@H]2CC[C@]3(C)[C@@H]2[C@H](O)C[C@@H]2[C@@]4(C)CC[C@H](O)C(C)(C)[C@@H]4[C@@H](O)C[C@]23C)O1` [panaxatriol]?
Answer: neuronal differentiation score (ReNCell VM [1]; library: Natural): inactive: 1; dopaminergic neuron differentiation score (ReNCell VM [2]; library: Natural): inactive: 0

Question: Which results are given for `CC(=O)NC(CC(=O)O)C(=O)O` (racemic) [Aspartic acid, N-acetyl (R,S)]?
Answer: neuronal differentiation score (ReNCell VM [1]; library: Phytochemical): inactive: 0; dopaminergic neuron differentiation score (ReNCell VM [2]; library: Phytochemical): inactive: 0

Question: For `Brc1c(NC2=NCCN2)ccc2nccnc12` [UK 14,304 tartrate], which neuronal differentiation score (ReNCell VM [1]; library: Tocriscreen) is on record?
Answer: Its neuronal differentiation score is inactive: 0.

Question: And the “dopaminergic neuron differentiation score” value (ReNCell VM [2]; library: Tocriscreen)?
Answer: The value was inactive: 0.

Question: For `COC(=O)C1=C(C)NC(C)=C(C(=O)OCCN2CCN(C(c3ccccc3)c3ccccc3)CC2)C1c1cccc([N+](=O)[O-])c1` (centres undefined), which neuronal differentiation score (ReNCell VM [1]; library: Spectrum) is on record?
Answer: The neuronal differentiation score was inactive: 0.

Question: And the “dopaminergic neuron differentiation score” value (ReNCell VM [2]; library: Spectrum)?
Answer: Its value is inactive: 0.

Question: `CC(=O)O[C@@H]1C[C@@]2(C)C(CC[C@@H]2C(C)=O)C2CCC3=CC(=O)CC[C@]3(C)C21` (some centres undefined) was tested. Which neuronal differentiation score (ReNCell VM [1]; library: Spectrum) did it give?
Answer: The neuronal differentiation score was inactive: 0.

Question: What about the “dopaminergic neuron differentiation score” value (ReNCell VM [2]; library: Spectrum) of the same molecule?
Answer: Its value is inactive: 0.
